Calls as published in the ROBIN set (doi:10.1002/anie.202211358).

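Compounds were printed on reactive glass slides in duplicate spots, a dye-labelled oligonucleotide was laid over them, and the fluorescence left after washing was read. The data file lists only calls. An earlier report of the laboratory on the PreQ1, TPP and SAM-II riboswitches (doi:10.1038/s41467-019-09493-3) used 1 µM RNA for 2 h and required a mean Z-score above 3 (spot signal-to-noise against the whole library), a score well above that on a control array, and duplicate spots agreeing (coefficient of variation under 100); it then also set aside compounds that hit other targets, which this list keeps. The cut-offs behind this list may differ. These are primary screening calls, not affinities; a compound without a hit may have attached poorly or may still bind in solution.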 A compound is marked hit if it was called a hit and none if it was screened but was not. Compounds were drawn at random from those tested, without regard to their results. A target missing from an entry has no call listed here.

Targets, with sequences 5′ to 3′:
T1: PreQ1 riboswitch RNA pseudoknot, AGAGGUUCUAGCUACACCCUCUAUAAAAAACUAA. From B. subtilis. Hit rate about 0.7% of about 24,000 compounds.
T2: TPP riboswitch RNA three-way junction, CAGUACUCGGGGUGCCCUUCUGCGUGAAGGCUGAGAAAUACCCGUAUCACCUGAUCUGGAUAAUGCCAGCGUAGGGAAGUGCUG. Hit rate about 0.7% of about 24,000 compounds.
T3: SAM-II riboswitch RNA pseudoknot, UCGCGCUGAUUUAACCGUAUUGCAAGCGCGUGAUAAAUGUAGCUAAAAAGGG. Hit rate about 1% of about 21,000 compounds.

{"smiles": "CC(C)c1noc(C2CCN(C(=O)c3cn(CCN)nn3)CC2)n1", "T1": "none", "T2": "none", "T3": "none"}
{"smiles": "COc1ccc(CCNS(=O)(=O)c2ccccc2N)cc1OC", "T1": "none", "T2": "none", "T3": "none"}
{"smiles": "O=c1n(Cc2ccccc2F)nc(C2CCCNC2)n1-c1ccccc1", "stereo": "stereo not shown", "T1": "none", "T2": "none", "T3": "none"}
{"smiles": "Cc1cc2cccc(C(=O)N3CCOC4(CNCCOC4)C3)c2o1", "stereo": "stereo not shown", "T1": "none", "T2": "none", "T3": "none"}
{"smiles": "N[C@H]1CN(C(=O)CSc2ccccc2)C[C@@H]1c1ccccc1", "T1": "none", "T2": "none", "T3": "none"}
{"smiles": "Cn1c(CN2CCCCC2)nc2cc(NCc3ccncc3)ccc21", "T1": "none", "T2": "none", "T3": "none"}
{"smiles": "Nc1n[nH]c(-c2ccccc2)n1", "T1": "none", "T2": "none", "T3": "none"}
{"smiles": "COCCOc1nc(-c2ccc(Cl)c(Cl)c2)n(-c2ccc(NC(=O)CCl)cc2)n1", "T1": "none", "T2": "none", "T3": "none"}
{"smiles": "O=C(c1cnccn1)N1C[C@@H]2CC[C@H](C1)N(C(=O)CCO)C2", "T1": "none", "T2": "none", "T3": "none"}
{"smiles": "N#Cc1c2c(c(NCC3CCCO3)n3c1nc1ccccc13)CCCC2", "stereo": "stereo not shown", "T1": "none", "T2": "none"}
{"smiles": "CC(C)(C)CC(=O)N[C@H]1CN[C@H](C(=O)NCc2nnc3n2CCCCC3)C1", "T1": "none", "T2": "none", "T3": "none"}
{"smiles": "CCOC(=O)c1ccccc1NCn1nc(-c2ccccc2)oc1=S", "T1": "none", "T2": "none", "T3": "none"}
{"smiles": "Cc1ncccc1Oc1ncnc(N2CCCCC(N)C2)c1C", "stereo": "stereo not shown", "T1": "none", "T2": "none", "T3": "none"}
{"smiles": "N#CC1=C(N)Oc2c(c(=O)oc3ccccc23)C1c1cccc2ccccc12", "stereo": "stereo not shown", "T1": "none", "T2": "none", "T3": "none"}
{"smiles": "Cn1c(=O)c2c(-c3ccccc3Cl)n(CCO)cc2n(C)c1=O", "T1": "none", "T2": "none"}
{"smiles": "COc1ccc(C(N)Cc2nc(C3CC3)nn2C2CCCCC2)cc1OC", "stereo": "stereo not shown", "T1": "none", "T2": "none", "T3": "none"}
{"smiles": "CCc1n[nH]c2c1C(c1ccc(Cl)cc1)C(C#N)=C(N)O2", "stereo": "stereo not shown", "T1": "none", "T2": "none", "T3": "none"}
{"smiles": "OCCC#Cc1nc(-c2ccc(F)cc2)c(-c2ccncc2)n1CCCc1ccccc1", "T1": "none", "T2": "none", "T3": "none"}
{"smiles": "CN1CCN(c2ccc3c(c2)NC(=C2C(=O)N=c4cccc(F)c4=C2N)N3)CC1", "T1": "none", "T2": "none", "T3": "none"}
{"smiles": "Nc1nc(-c2ccccc2)ns1", "T1": "none", "T2": "none", "T3": "none"}
{"smiles": "COc1ccc(C(=O)CN2CCNCC2)cc1.Cl", "T1": "none", "T2": "none", "T3": "none"}
{"smiles": "CCCCNc1cc(C)nc2c(-c3ccccc3)c(C(F)(F)F)nn12", "T1": "none", "T2": "none"}
{"smiles": "c1ccc(-c2oc3ncnc(NC[C@@H]4CCCO4)c3c2-c2ccccc2)cc1", "T1": "none", "T2": "none", "T3": "none"}
{"smiles": "CCOC(=O)O[C@]1(C(=O)OCCl)CC[C@H]2[C@@H]3CCC4=CC(=O)C=C[C@]4(C)[C@H]3[C@@H](O)C[C@@]21C", "T1": "none", "T2": "none", "T3": "none"}
{"smiles": "CCOc1ccc(NC(=O)c2sc3nc4c(cc3c2N)CCCCCC4)cc1", "T1": "none", "T2": "none", "T3": "none"}
{"smiles": "Cc1cc(C(=O)OCCCNC2=NS(=O)(=O)c3ccccc32)c2ccccc2n1", "T1": "none", "T2": "none", "T3": "none"}
{"smiles": "COC(=O)Nc1nc2ccc(S(=O)c3ccccc3)cc2[nH]1", "stereo": "stereo not shown", "T1": "none", "T2": "none", "T3": "none"}
{"smiles": "NC1=C(c2nc3ccccc3[nH]2)C(=O)CN1c1ccccc1Cl", "T1": "none", "T2": "none"}
{"smiles": "COc1ccc(-n2ccnc2-c2nccn2[C@@H]2c3ccccc3C[C@@H]2O)cc1", "T1": "none", "T2": "none", "T3": "none"}
{"smiles": "C#CC1(N)CCCCC1", "T1": "none", "T2": "none", "T3": "none"}
{"smiles": "Cc1ccc(CSc2nc(N)cc(N3CC[C@H](O)[C@@H](O)C3)n2)cc1", "T1": "none", "T2": "none", "T3": "none"}
{"smiles": "Cc1c(-c2cnn(C)c2)nc(N)c(C#N)c1-c1cccn1-c1cccnc1", "T1": "none", "T2": "none", "T3": "none"}
{"smiles": "NC(=O)CNC1CC(=O)N(c2ccc(Br)cc2)C1=O", "stereo": "stereo not shown", "T1": "none", "T2": "none", "T3": "none"}
{"smiles": "O=C(O)C1CNCCN(Cc2cc(=O)n3cccc(O)c3n2)C1", "stereo": "stereo not shown", "T1": "none", "T2": "none", "T3": "none"}
{"smiles": "Cc1ccc(-n2nc(CO)c(C(=O)NCc3ccc(F)cc3)n2)cc1", "T1": "none", "T2": "none"}
{"smiles": "Clc1ccccc1-c1nnc2sc(Nc3ccccc3)nn12", "T1": "none", "T2": "none", "T3": "none"}
{"smiles": "CCN(CC)CC(C)NCc1ccc2nsnc2c1", "stereo": "stereo not shown", "T1": "none", "T2": "none", "T3": "none"}
{"smiles": "O=C(NCCNc1cccnc1)C1CCC(=O)N(Cc2cccc(F)c2)C1", "stereo": "stereo not shown", "T1": "none", "T2": "none", "T3": "none"}
{"smiles": "Clc1ccccc1Nc1nc2ccccc2c2nncn12", "T1": "none", "T2": "none", "T3": "none"}
{"smiles": "O=S(=O)(c1ccc(Cl)cc1)c1cnc2ccccc2c1NCc1ccccc1", "T1": "none", "T2": "none"}
{"smiles": "N#CC1=C(N)N(c2ccc(F)cc2)C2=C(C(=O)CCC2)C1c1ccc(F)cc1", "stereo": "stereo not shown", "T1": "none", "T2": "none", "T3": "none"}
{"smiles": "Cc1ccc2nc(NCCc3ccc(Cl)cc3)c(-c3noc(C)n3)cc2c1", "T1": "none", "T2": "none"}

The first 5 entries again:

SMILES	T1	T2	T3
CC(C)c1noc(C2CCN(C(=O)c3cn(CCN)nn3)CC2)n1	none	none	none
COc1ccc(CCNS(=O)(=O)c2ccccc2N)cc1OC	none	none	none
O=c1n(Cc2ccccc2F)nc(C2CCCNC2)n1-c1ccccc1 (stereo not shown)	none	none	none
Cc1cc2cccc(C(=O)N3CCOC4(CNCCOC4)C3)c2o1 (stereo not shown)	none	none	none
N[C@H]1CN(C(=O)CSc2ccccc2)C[C@@H]1c1ccccc1	none	none	none